Here are results for twelve molecules from article PMC9338313.

Amino acid sequences for entries named in this document (tags omitted). A change or cut given only in a name is not applied to a line headed by its entry.
UniProt Q9Y4A5: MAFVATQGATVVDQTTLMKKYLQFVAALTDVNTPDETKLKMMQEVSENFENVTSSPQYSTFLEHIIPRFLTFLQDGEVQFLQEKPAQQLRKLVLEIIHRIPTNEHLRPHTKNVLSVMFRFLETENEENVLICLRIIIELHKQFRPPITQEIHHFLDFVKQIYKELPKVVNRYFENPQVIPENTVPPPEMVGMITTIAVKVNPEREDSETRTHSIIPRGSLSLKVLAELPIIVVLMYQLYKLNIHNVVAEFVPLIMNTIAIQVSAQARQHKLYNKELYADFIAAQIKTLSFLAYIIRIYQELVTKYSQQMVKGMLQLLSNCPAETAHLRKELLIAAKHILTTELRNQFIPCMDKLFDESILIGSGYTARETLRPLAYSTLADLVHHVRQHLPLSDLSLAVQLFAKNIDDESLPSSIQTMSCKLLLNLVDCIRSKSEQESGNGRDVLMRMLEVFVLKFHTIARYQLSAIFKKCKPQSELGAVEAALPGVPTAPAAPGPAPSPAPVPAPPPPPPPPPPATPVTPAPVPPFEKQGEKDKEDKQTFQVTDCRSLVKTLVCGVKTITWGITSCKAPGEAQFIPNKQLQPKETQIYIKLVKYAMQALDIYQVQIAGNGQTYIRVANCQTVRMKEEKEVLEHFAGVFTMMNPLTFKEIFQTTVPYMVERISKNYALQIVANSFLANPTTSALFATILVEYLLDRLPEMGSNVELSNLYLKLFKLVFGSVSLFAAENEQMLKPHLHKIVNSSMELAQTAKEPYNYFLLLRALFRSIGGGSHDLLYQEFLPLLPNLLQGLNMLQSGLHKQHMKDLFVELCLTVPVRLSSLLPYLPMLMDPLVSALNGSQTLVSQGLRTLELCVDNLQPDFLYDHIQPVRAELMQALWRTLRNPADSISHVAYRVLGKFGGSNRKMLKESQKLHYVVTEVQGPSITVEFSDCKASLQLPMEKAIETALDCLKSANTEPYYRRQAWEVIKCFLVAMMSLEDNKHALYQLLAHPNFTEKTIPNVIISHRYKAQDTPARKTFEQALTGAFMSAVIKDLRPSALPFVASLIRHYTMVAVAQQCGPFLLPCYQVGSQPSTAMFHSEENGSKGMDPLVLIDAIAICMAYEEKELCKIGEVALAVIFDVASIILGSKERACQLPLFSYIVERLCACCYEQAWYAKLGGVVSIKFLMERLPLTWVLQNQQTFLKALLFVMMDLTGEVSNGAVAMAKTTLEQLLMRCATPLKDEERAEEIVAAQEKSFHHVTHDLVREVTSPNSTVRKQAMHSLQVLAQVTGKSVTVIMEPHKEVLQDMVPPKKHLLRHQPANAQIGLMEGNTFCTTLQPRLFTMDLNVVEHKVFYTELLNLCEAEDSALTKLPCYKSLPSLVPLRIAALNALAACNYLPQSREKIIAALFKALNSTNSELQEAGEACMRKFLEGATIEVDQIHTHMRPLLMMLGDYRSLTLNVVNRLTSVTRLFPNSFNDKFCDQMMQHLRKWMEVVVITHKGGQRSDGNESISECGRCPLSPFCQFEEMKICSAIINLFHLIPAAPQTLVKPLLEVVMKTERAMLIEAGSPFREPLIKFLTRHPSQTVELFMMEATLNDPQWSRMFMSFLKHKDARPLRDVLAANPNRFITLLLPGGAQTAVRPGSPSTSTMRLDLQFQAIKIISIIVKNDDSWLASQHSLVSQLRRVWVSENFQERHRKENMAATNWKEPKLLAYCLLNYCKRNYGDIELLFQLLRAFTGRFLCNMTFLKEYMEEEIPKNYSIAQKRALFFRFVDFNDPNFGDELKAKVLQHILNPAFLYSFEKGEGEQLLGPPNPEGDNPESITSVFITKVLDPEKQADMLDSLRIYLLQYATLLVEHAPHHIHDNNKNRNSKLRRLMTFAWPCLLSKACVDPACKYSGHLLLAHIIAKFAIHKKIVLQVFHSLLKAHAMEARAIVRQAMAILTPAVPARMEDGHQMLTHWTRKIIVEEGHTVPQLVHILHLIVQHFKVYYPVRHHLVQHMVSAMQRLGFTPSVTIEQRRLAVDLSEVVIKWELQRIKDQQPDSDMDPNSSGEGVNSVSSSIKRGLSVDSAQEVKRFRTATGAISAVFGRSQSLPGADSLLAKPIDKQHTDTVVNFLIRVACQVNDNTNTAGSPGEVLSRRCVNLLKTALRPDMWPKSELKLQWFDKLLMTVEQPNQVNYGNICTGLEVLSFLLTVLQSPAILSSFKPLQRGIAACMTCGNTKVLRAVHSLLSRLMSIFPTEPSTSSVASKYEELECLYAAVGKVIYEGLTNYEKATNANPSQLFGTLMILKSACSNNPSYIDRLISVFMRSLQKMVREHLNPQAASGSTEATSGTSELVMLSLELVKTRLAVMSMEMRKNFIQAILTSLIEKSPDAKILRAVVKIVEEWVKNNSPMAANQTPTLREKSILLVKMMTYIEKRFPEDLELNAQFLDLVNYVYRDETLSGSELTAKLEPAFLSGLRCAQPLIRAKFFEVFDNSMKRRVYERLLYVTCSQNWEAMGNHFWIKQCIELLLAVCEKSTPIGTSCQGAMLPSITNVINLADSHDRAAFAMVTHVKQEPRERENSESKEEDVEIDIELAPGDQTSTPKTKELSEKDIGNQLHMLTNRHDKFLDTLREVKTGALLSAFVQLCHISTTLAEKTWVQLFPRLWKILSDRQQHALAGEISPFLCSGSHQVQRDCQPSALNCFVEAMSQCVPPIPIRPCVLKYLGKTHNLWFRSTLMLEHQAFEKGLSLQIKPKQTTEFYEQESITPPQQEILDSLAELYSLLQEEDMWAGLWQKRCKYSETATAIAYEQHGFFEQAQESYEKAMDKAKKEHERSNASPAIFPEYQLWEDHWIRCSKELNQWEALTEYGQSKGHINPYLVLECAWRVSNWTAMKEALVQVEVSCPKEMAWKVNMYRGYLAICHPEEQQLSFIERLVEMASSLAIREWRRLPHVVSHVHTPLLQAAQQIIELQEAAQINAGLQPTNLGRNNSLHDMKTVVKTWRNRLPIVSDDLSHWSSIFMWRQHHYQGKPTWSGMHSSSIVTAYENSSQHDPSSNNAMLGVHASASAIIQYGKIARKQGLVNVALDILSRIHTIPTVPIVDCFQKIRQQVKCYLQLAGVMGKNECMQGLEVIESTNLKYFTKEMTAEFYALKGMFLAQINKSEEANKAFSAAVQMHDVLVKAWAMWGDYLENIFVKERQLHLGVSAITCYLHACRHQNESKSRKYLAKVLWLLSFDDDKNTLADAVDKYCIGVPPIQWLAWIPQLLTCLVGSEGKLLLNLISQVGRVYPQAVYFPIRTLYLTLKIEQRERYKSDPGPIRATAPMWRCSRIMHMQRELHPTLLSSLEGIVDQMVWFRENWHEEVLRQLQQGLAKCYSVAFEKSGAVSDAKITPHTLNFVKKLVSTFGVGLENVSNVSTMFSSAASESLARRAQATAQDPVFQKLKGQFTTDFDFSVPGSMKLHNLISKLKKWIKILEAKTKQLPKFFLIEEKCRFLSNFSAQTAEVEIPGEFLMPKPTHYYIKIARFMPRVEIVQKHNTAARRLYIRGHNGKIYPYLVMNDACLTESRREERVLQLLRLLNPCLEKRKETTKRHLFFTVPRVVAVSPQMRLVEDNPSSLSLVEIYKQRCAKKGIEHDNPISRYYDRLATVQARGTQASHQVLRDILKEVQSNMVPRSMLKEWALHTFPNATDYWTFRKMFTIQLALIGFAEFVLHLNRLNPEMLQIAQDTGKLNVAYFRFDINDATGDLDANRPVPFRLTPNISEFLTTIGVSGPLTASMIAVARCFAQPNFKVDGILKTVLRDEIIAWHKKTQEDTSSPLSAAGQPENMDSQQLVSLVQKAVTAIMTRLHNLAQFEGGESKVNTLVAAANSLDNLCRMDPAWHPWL
UniProt Q00613: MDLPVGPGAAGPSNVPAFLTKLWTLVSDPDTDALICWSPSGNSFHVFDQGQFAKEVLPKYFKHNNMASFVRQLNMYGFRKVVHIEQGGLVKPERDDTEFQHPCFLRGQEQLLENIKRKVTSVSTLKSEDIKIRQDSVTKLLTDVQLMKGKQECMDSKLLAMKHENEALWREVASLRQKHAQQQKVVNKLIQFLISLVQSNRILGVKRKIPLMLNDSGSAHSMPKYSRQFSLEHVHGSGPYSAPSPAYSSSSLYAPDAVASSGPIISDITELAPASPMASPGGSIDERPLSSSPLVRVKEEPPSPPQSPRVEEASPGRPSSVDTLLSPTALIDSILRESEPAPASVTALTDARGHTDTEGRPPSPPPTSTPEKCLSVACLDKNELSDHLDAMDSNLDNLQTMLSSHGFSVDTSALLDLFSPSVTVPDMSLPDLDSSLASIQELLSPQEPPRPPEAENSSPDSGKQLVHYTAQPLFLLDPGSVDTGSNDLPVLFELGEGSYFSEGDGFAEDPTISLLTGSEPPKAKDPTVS
UniProt O95619: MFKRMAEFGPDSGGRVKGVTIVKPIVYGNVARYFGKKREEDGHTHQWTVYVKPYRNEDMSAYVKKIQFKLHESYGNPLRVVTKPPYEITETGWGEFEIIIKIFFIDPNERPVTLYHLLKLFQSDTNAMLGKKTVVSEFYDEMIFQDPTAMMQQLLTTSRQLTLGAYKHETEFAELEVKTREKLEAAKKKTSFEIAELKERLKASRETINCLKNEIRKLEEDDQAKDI
UniProt Q8TDX7: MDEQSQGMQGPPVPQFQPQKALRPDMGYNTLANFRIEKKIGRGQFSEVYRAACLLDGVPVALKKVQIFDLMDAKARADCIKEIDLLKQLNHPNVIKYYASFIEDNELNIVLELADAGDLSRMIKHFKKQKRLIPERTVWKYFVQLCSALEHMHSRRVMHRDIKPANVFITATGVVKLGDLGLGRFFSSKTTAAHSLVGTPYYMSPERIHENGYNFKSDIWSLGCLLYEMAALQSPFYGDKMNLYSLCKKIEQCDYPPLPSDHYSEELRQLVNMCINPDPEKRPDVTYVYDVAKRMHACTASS
UniProt P53350: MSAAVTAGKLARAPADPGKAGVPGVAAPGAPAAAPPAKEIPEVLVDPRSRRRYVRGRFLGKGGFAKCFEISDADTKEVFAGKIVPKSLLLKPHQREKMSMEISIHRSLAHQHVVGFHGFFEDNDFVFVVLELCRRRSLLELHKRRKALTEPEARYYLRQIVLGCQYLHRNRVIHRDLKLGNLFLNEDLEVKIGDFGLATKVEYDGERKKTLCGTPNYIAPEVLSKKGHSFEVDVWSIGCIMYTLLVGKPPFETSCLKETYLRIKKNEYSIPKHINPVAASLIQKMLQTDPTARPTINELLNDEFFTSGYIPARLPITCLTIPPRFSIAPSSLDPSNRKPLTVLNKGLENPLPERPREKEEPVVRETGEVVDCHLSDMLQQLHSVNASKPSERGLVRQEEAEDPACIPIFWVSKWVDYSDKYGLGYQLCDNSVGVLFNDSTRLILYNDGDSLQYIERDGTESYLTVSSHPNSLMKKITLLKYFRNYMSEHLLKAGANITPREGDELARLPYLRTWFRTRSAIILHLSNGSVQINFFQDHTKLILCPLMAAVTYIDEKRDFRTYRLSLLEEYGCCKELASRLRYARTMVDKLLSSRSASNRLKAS
UniProt Q9NXR8: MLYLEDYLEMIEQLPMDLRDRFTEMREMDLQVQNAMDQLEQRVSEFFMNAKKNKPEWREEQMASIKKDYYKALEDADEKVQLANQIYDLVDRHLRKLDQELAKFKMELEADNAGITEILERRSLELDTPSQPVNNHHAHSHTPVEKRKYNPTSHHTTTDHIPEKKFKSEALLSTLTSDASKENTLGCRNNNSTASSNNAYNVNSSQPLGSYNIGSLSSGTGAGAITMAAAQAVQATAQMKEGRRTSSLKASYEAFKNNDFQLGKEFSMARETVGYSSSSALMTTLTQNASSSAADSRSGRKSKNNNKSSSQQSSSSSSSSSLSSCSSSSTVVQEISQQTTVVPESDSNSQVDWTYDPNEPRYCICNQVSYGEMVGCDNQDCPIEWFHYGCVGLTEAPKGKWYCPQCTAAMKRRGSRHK
UniProt Q92993: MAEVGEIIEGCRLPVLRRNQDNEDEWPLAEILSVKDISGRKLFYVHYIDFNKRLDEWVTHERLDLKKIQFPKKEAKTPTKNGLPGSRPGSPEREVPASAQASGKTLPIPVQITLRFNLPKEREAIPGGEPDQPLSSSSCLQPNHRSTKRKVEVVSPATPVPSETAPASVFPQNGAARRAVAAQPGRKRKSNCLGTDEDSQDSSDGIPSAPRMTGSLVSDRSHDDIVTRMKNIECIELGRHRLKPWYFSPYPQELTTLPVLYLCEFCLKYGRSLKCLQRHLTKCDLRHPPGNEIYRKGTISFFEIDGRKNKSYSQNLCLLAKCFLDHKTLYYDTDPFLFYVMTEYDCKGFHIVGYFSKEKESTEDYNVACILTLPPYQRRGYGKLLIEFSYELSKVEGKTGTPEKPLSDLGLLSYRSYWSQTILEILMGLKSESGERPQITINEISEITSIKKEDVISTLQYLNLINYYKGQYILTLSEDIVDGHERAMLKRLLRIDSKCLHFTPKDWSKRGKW

These are yes or no findings as the source states them, for the method shown. Binding seen in cells or lysates may run through a third protein. These calls come from enrichment with a bait or labelling near it, and not all partners need be listed.

The target in assay [1] is hTRRAP (isoform 2, accession number NP_003487) tagged with 3×FLAG peptide at the C-terminus (human) (UniProt Q9Y4A5). In words: affinity purification with mass spectrometry; nuclear extracts (150 mM NaCl, 1% NP-40) of HeLa-hTRRAP-3×FLAG cells untreated or heat-shocked at 42 °C for 10 or 30 min; anti-FLAG M2 affinity gel, eluted with FLAG peptide; normalised to HeLa cells.

Assay [2] deals with heat shock transcription factor 1 (HSF1) (human (endogenous in HeLa)) (UniProt Q00613). In words: affinity purification with mass spectrometry; ChIP-MS: HeLa cells untreated or heat-shocked at 42 °C (5, 30, 60 min), fixed with 1% formaldehyde, sonicated chromatin precipitated with anti-mHSF1j serum or preimmune serum on Dynabeads Protein A, washed with RIPA wash buffer (0.25 M LiCl).

GAS41 (from UniProt O95619 1-227): in assay [1], the binding entry is listed as “binds”. For the molecule TRRAP (from UniProt Q9Y4A5 1-3859), the binding result in assay [2] was “binds”. “NEK7 (from UniProt Q8TDX7 1-302) (enzyme)”: the binding result in assay [2] is listed as “binds”. As to p400 (from UniProt Q96L91 1-3159), in assay [1], the binding result is given as “binds”. Regarding “EP300 (p300) (from UniProt Q09472 1-2414) (enzyme)”, the binding entry in assay [2] is listed as “binds”. In the case of “PLK1 (from UniProt P53350 1-603) (enzyme)”, in assay [2], the binding result is on record as “binds”. With ING3 (from UniProt Q9NXR8 1-418), in assay [1], the binding result is recorded as “binds”. Regarding TRIM28 (from UniProt Q13263 1-835), the binding entry in assay [2] was “binds”. With “TIP60 (from UniProt Q92993 1-513) (enzyme)”, in assay [1], the binding result is “binds”. On to “tripartite motif (TRIM) 33 (from UniProt Q9UPN9 1-1127)”, for which the binding entry in assay [2] is “binds”. Regarding “CREBBP (CBP) (from UniProt Q92793 1-2442) (enzyme)”, the binding result in assay [2] is on record as “binds”.

B1: TRIM24 (protein, UniProt O15164 1-1050)
chain: MEVAVEKAVAAAAAASAAASGGPSAAPSGENEAESRQGPDSERGGEAARLNLLDTCAVCHQNIQSRAPKLLPCLHSFCQRCLPAPQRYLMLPAPMLGSAETPPPVPAPGSPVSGSSPFATQVGVIRCPVCSQECAERHIIDNFFVKDTTEVPSSTVEKSNQVCTSCEDNAEANGFCVECVEWLCKTCIRAHQRVKFTKDHTVRQKEEVSPEAVGVTSQRPVFCPFHKKEQLKLYCETCDKLTCRDCQLLEHKEHRYQFIEEAFQNQKVIIDTLITKLMEKTKYIKFTGNQIQNRIIEVNQNQKQVEQDIKVAIFTLMVEINKKGKALLHQLESLAKDHRMKLMQQQQEVAGLSKQLEHVMHFSKWAVSSGSSTALLYSKRLITYRLRHLLRARCDASPVTNNTIQFHCDPSFWAQNIINLGSLVIEDKESQPQMPKQNPVVEQNSQPPSGLSSNQLSKFPTQISLAQLRLQHMQQQVMAQRQQVQRRPAPVGLPNPRMQGPIQQPSISHQQPPPRLINFQNHSPKPNGPVLPPHPQQLRYPPNQNIPRQAIKPNPLQMAFLAQQAIKQWQISSGQGTPSTTNSTSSTPSSPTITSAAGYDGKAFGSPMIDLSSPVGGSYNLPSLPDIDCSSTIMLDNIVRKDTNIDHGQPRPPSNRTVQSPNSSVPSPGLAGPVTMTSVHPPIRSPSASSVGSRGSSGSSSKPAGADSTHKVPVVMLEPIRIKQENSGPPENYDFPVVIVKQESDEESRPQNANYPRSILTSLLLNSSQSSTSEETVLRSDAPDSTGDQPGLHQDNSSNGKSEWLDPSQKSPLHVGETRKEDDPNEDWCAVCQNGGELLCCEKCPKVFHLSCHVPTLTNFPSGEWICTFCRDLSKPEVEYDCDAPSHNSEKKKTEGLVKLTPIDKRKCERLLLFLYCHEMSLAFQDPVPLTVPDYYKIIKNPMDLSTIKKRLQEDYSMYSKPEDFVADFRLIFQNCAEFNEPDSEVANAGIKLENYFEELLKNLYPEKRFPKPEFRNESEDNKFSDDSDDDFVQPRKKRLKSIEERQLLK
In the case of B1, the binding result in assay [2] is given as “binds”.
